Laboratory results from PubChem BioAssay AID1671190 (National Center for Advancing Translational Sciences (NCATS), 2021).
Among all 580,000 compounds or so, about 6,100 (1.1%) were called active. This list was built around the results that the source calls inconclusive (neither active nor inactive); the mix of calls is not that of the screen. Calls follow the shape of the dose curve; as a rule, active = well fitted inhibition curve with a large enough effect; inconclusive = small, poorly fitted or top-dose-only effect, or another doubt; inactive = no such curve, though single readings can be large or run the other way. A potency beside an inconclusive call is a rough fit, not a confirmed value.

Sequences of proteins named here, by UniProt entry; tags and fusion partners are left off.
UniProt P18054, whole entry, looked up: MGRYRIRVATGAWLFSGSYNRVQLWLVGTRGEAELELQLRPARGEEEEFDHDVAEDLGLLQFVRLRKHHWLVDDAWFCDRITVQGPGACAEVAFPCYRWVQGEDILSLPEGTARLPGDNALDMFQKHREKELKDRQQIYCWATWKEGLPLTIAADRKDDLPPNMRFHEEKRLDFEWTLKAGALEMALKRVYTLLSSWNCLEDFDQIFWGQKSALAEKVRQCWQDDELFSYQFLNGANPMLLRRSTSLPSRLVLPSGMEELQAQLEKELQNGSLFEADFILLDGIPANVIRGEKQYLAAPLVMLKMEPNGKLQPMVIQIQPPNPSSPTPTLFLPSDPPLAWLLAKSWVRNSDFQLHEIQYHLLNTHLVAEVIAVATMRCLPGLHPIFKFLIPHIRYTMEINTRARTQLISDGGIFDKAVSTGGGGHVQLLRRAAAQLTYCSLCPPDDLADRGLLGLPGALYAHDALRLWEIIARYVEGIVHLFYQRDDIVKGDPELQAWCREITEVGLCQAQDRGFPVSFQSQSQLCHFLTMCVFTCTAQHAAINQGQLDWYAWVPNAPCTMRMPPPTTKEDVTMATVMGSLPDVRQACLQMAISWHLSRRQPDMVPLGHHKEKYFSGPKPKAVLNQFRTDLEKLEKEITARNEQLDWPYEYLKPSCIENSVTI

Biological target: Polyunsaturated fatty acid lipoxygenase ALOX12 (Homo sapiens) (UniProt P18054)
Experiment: Primary qHTS assay for inhibitors of human arachidonate 12S-lipoxygenase (ALOX12): Round 2
Conditions: purified 12hLO, xylenol orange hydroperoxide absorbance; activity change, negative = inhibition: at 108 µM (top of the series) unless noted
Outline: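 Purified human 12hLO at 150 nM in 25 mM Hepes, 0.01% Triton X-100, pH 7.0, preincubated 15 min at room temperature with compound. Reaction started with 40 uM arachidonic acid, 30 min at room temperature. Hydroperoxide measured by Fe-xylenol orange, 573/405 nm absorbance ratio.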
% is scaled to controls: 0 for no effect and ±100 for the full control effect; potency is read from the fitted curve at half-maximal effect.

How did the “activity change, negative = inhibition” value turn out when `CCOc1ccc2c(c1)cc(C(=O)Nc1cccc(C)c1)n2C` was run?
The value was inactive: -27.4%.

With `CCOc1ccc(OCC(=O)OC(C)C(=O)NC2CCCC2)cc1` (stereo not given) as the compound, how does the Potency read?
Its Potency is inconclusive: 112 µM [inhibitor, partial curve, poor fit].

`O=C(NCCCSc1ccccc1)c1cnc(Cl)c(Cl)c1` was tested. Which Potency did it give?
The Potency was inconclusive: 44.7 µM [inhibitor, partial curve, poor fit].

For `Cc1csc(C(=O)NN)c1N(C)C`, which Potency is on record?
The Potency was inconclusive: 0.631 µM [inhibitor, partial curve, poor fit].

`CC(C)(C)NC(=O)CN1CCCN(C(=O)c2cccc(S(=O)(=O)N3CCc4ccccc43)c2)CC1` was tested. Which Potency did it give?
The Potency was inconclusive: 141 µM [inhibitor, single point].

`O=C(CN1C(=O)NC2(CCOCC2)C1=O)Nc1ccc(Br)cc1F` was tested. Which Potency did it give?
Its Potency is inconclusive: 7.94 µM [inhibitor, full curve].

For `COc1ccc(CN2C(=O)NC3(CCCCC3)C2=O)cc1F`, which Potency is on record?
Its Potency is inconclusive: 112 µM [inhibitor, partial curve, poor fit].

`COc1ccc(-c2ccccc2NC(=O)C2CCCN(C3CCOCC3)C2)cc1` (stereo not given) was tested. Which “activity change, negative = inhibition” value did it give?
The value was inactive: -9.66%.

How did the Potency turn out when `Cc1ccc2nc(C)cc(C(=O)NC(C)(C)C)c2c1` was run?
Its Potency is inconclusive: 100 µM [inhibitor, single point].

For `COc1ccc(/C=N/n2c(C3CCCCC3)n[nH]c2=S)c(OC)c1`, which Potency is on record?
Its Potency is active: 39.8 µM.

Which Potency does the source give for `Cc1ccc(F)cc1S(=O)(=O)N1CCC(OC2CCN(Cc3ccccc3)CC2)CC1` here?
The Potency was inconclusive: 79.4 µM [inhibitor, partial curve].

`NC(=O)C1(C(=O)N2CCC3(CCCN(CCCc4ccccc4)C3=O)C2)CC1` (stereo not given) was tested. Which Potency did it give?
The Potency was inconclusive: 100 µM [inhibitor, partial curve, poor fit].

For `Cc1ccc(NC(=O)COc2coc(CN3c4ccccc4CC3C)cc2=O)c(C)c1` (stereo not given), which Potency is on record?
The Potency was inconclusive: 56.2 µM [inhibitor, partial curve, poor fit].

How did the Potency turn out when `Clc1ccccc1-c1nccc(NCc2ccccc2)n1` was run?
Its Potency is inconclusive: 5.01 µM [inhibitor, full curve, poor fit].

With `O=C1/C(=C/c2ccc(-c3ccccc3)cc2)CCc2ccccc21` as the compound, how does the Potency read?
The Potency was inconclusive: 31.6 µM [inhibitor, single point].

`O=C(OCc1nnc(-c2ccc(Cl)cc2)o1)c1ccc(O)cc1` was tested. Which Potency did it give?
Its Potency is inconclusive: 39.8 µM [inhibitor, partial curve].

Which Potency does the source give for `CCOC(=O)C1=C(CC)OC(N)=C(C#N)C1c1cccs1` (stereo not given) here?
Its Potency is inconclusive: 0.708 µM [inhibitor, full curve, poor fit].

For `CCc1ccc(NC(=O)Cn2c(C(=O)OC)cc3oc(C)cc32)cc1`, which Potency is on record?
The Potency was inconclusive: 39.8 µM [inhibitor, partial curve, poor fit].

For `COc1cccc(CN(C)CC(=O)NCc2ccc(C)cc2)c1`, which activity change, negative = inhibition is on record?
Its activity change, negative = inhibition is inconclusive: -31.5% [inhibitor].

Which Potency does the source give for `O=[N+]([O-])c1ccccc1-c1cc(-c2ccccc2Br)no1` here?
The Potency was inconclusive: 100 µM [inhibitor, single point].

For `COc1ccc(/C=C/C(=O)c2ccc(OC(F)F)c(OC)c2)c(OC)c1`, which Potency is on record?
The Potency was inconclusive: 44.7 µM [inhibitor, partial curve, poor fit].

With `O=C(CSc1ccc(Cl)cc1)c1cc2ccccc2oc1=O` as the compound, how does the Potency read?
Its Potency is active: 7.08 µM.

With `COC(=O)CC1c2cc(OC)c(OC)cc2CCN1Cc1nc(C)no1` (stereo not given) as the compound, how does the “activity change, negative = inhibition” value read?
The value was inactive: -26.3%.

`O=C(Cn1c(=O)oc2ccccc21)Nc1ccccc1Cl` was tested. Which Potency did it give?
The Potency was inconclusive: 31.6 µM [inhibitor, full curve, poor fit].

For `O=C(NNC(=S)NCc1ccccc1)c1cccnc1`, which “activity change, negative = inhibition” value is on record?
The value was inactive: 103%.

How did the Potency turn out when `CS(=O)(=O)Nc1ccc(Cc2ccc(NS(C)(=O)=O)cc2)cc1` was run?
Its Potency is inconclusive: 2 µM [inhibitor, full curve, poor fit].

`O=C(CSc1cn(Cc2ccc(F)cc2)c2ccccc12)N1CCCC1` was tested. Which Potency did it give?
The Potency was inconclusive: 0.199 µM [inhibitor, full curve, poor fit].

For `CCn1c(=O)c(=O)[nH]c2cc(C(=O)NC3CCCC3)ccc21`, which Potency is on record?
The Potency was inconclusive: 100 µM [inhibitor, single point].

`CCOC(=O)/C(C#N)=C/Nc1ccsc1C(=O)OC` was tested. Which “activity change, negative = inhibition” value did it give?
The value was inactive: 5.95%.

Which Potency does the source give for `Cc1ccc(NS(=O)(=O)c2cc(NC(=O)Cc3n[nH]c(=O)c4ccccc34)ccc2C)c(C)c1` here?
Its Potency is inconclusive: 126 µM [inhibitor, single point].

With `COc1ccc(CN2C3CCCC2CC(NC(=O)/C=C/c2ccccc2)C3)cc1` (stereo not given) as the compound, how does the Potency read?
The Potency was inconclusive: 44.7 µM [inhibitor, partial curve, poor fit].

Which Potency does the source give for `CCCNc1nc(-c2ccc(O)c(C(N)=O)c2)cs1` here?
Its Potency is inconclusive: 31.6 µM [inhibitor, partial curve].

How did the Potency turn out when `CCCNC(=O)c1cc(=O)[nH]c2ccc(S(=O)(=O)N3CCOCC3)cc12` was run?
Its Potency is inconclusive: 8.91 µM [inhibitor, full curve].

`Nc1ncc(-c2ccccc2)n1CC1CCCO1` (stereo not given) was tested. Which “activity change, negative = inhibition” value did it give?
Its value is inactive: 0%.

`Cc1cc(=O)oc2cc(NC(=O)Cc3ccc(Cl)cc3)ccc12` was tested. Which Potency did it give?
Its Potency is inconclusive: 100 µM [inhibitor, partial curve, poor fit].

How did the Potency turn out when `CC(C)C[C@H](CC(=O)O)C(=O)N[C@@H](Cc1c[nH]c2ccccc12)C(=O)N[C@@H](C)c1ccccc1` was run?
Its Potency is inconclusive: 4.32 µM [inhibitor, partial curve, poor fit].

For `Cc1cc(CN(C)Cc2ccc(F)cc2)no1`, which “activity change, negative = inhibition” value is on record?
Its value is inactive: 37.5% [at 176 µM].

Which “activity change, negative = inhibition” value does the source give for `CCOC(=O)c1c(NC(=O)C(=O)NCc2ccncc2)sc2c1CC(C)(C)OC2` here?
Its value is inactive: 44%.

For `O=C(/C=C/c1ccccc1)NCc1ccc2c(c1)OCO2`, which “activity change, negative = inhibition” value is on record?
The value was inactive: 0%.

Which Potency does the source give for `CN(C)c1ccc(NC(=S)c2ccc3ccccc3n2)cc1` here?
The Potency was inconclusive: 31.6 µM [inhibitor, partial curve, poor fit].

`NC(=O)[C@@H]1CCCCNc2c(F)cc([N+](=O)[O-])cc2C(=O)N[C@@H](CCCN=C(N)N)C(=O)NCC(=O)N1` was tested. Which “activity change, negative = inhibition” value did it give?
Its value is inactive: -8.93%.

`COc1ccc(O)c(/C=N/c2sc(C)c(C)c2C#N)c1` was tested. Which Potency did it give?
Its Potency is inconclusive: 112 µM [inhibitor, partial curve, poor fit].

With `O=C(/C=C/c1ccc(-c2cc(Cl)ccc2Cl)o1)c1ccccc1` as the compound, how does the Potency read?
The Potency was inconclusive: 20 µM [inhibitor, partial curve, poor fit].

How did the Potency turn out when `CSc1ccccc1NC(=O)Nc1cccc(Cl)c1` was run?
Its Potency is inconclusive: 28.2 µM [inhibitor, partial curve, poor fit].

How did the Potency turn out when `c1ccc(CCCCN2CCN=C2Nc2ccccc2)cc1` was run?
Its Potency is inconclusive: 79.4 µM [inhibitor, partial curve, poor fit].

With `OCc1cn(-c2ccccc2)nc1-c1ccc2c(c1)OCCO2` as the compound, how does the “activity change, negative = inhibition” value read?
The value was inactive: 0%.

For `N#Cc1ccccc1OCCN1CCc2ccccc2C1`, which Potency is on record?
The Potency was inconclusive: 0.631 µM [inhibitor, full curve, poor fit].

Which Potency does the source give for `CCc1nc2c(OCC(=O)C(C)(C)C)cccn2c1N(C=O)CC(=O)N(C)C` here?
The Potency was inconclusive: 25.1 µM [inhibitor, partial curve, poor fit].

`CCOC(=O)C1CCN(S(=O)(=O)c2cc(-c3cc(C)no3)ccc2OC)CC1` was tested. Which “activity change, negative = inhibition” value did it give?
The value was inactive: -14.4%.

`CCCn1nc(C(=O)Oc2ccc3c(C)cc(=O)oc3c2)c2ccccc2c1=O` was tested. Which “activity change, negative = inhibition” value did it give?
The value was inactive: -16.3%.

With `Cc1ccc(C)c(NC(=S)NNC(=O)c2sccc2C)c1` as the compound, how does the “activity change, negative = inhibition” value read?
The value was inactive: 23.7%.

For `Cc1ccc(NC(=S)NCc2ccc(Cl)cc2)c(C)c1`, which Potency is on record?
Its Potency is active: 35.5 µM.

`O=C1C(n2ccc3ccccc32)c2cccc(F)c2N1Cc1ccc(C(F)(F)F)cc1` (stereo not given) was tested. Which Potency did it give?
The Potency was active: 44.7 µM.

`S=C(NCc1cccnc1)Nc1ccc(Br)cc1` was tested. Which Potency did it give?
Its Potency is inconclusive: 89.1 µM [inhibitor, single point].

How did the Potency turn out when `Cn1ncc([N+](=O)[O-])c1C(=O)Nc1nccs1` was run?
Its Potency is inconclusive: 3.98 µM [inhibitor, full curve, poor fit].

`CN1CCN(CC(=O)N/N=C/c2ccc(F)c(F)c2)CC1` was tested. Which Potency did it give?
Its Potency is inconclusive: 0.562 µM [inhibitor, full curve, poor fit].

Which “activity change, negative = inhibition” value does the source give for `Cc1ccccc1C(=O)NC1CCN(c2cc(-c3ccccc3)[nH]n2)C1` (stereo not given) here?
The value was inactive: 38.5%.

With `CC(C)N(Cc1nc(-c2ccccc2)no1)C(=O)CSc1ccccc1` as the compound, how does the “activity change, negative = inhibition” value read?
The value was inactive: -9%.

How did the “activity change, negative = inhibition” value turn out when `CCCCOCCCNc1ncnc2c1[nH]c1ccccc12` was run?
Its value is inactive: 4.57%.

How did the Potency turn out when `O=C(O)c1ccccc1C(=O)OCC1CCC(=NO)CC1` (stereo not given) was run?
The Potency was inconclusive: 44.7 µM [inhibitor, full curve, poor fit].

For `FC(F)(F)c1ccccc1-c1ccc2ncnc(NCc3cccnc3)c2c1`, which Potency is on record?
Its Potency is inconclusive: 11.2 µM [inhibitor, partial curve, poor fit].

How did the Potency turn out when `COc1ccc2c(-c3ccccc3)cc(SCC(=O)NC3CC3)nc2c1` was run?
Its Potency is inconclusive: 39.8 µM [inhibitor, partial curve, poor fit].

How did the Potency turn out when `O=C(CCc1ccccc1)OCC(=O)c1ccc2c(c1)OCCCO2` was run?
The Potency was inconclusive: 141 µM [inhibitor, partial curve, poor fit].

`Cc1ccccc1Nc1nc(-c2ccc([N+](=O)[O-])cc2)cs1` was tested. Which Potency did it give?
Its Potency is inconclusive: 0.251 µM [inhibitor, full curve, poor fit].

How did the “activity change, negative = inhibition” value turn out when `Cc1ccc2cc(CN(CC3CCCO3)C(=S)Nc3ccccc3)c(=O)[nH]c2c1C` (stereo not given) was run?
Its value is inactive: -21.8%.

How did the Potency turn out when `Cc1ccnc(SC2CC(=O)N(c3ccc([N+](=O)[O-])cc3)C2=O)n1` (stereo not given) was run?
The Potency was inconclusive: 39.8 µM [inhibitor, partial curve, poor fit].

With `COc1cccc(OCC(O)CN(CCO)Cc2ccccc2)c1` (stereo not given) as the compound, how does the “activity change, negative = inhibition” value read?
Its value is inactive: -11.4%.

With `Cc1cc2cc(CNC(=S)Nc3cccc(Br)c3)ccc2[nH]1` as the compound, how does the Potency read?
Its Potency is active: 28.2 µM.

With `CCn1ncc(S(=O)(=O)N2CCC3(CC2)CNC(C(=O)O)C3)c1C` (stereo not given) as the compound, how does the Potency read?
Its Potency is inconclusive: 2.51 µM [inhibitor, full curve].

With `COC(=O)c1cc(-c2ccccc2)sc1NC(=O)CN1C(=O)c2ccccc2C1=O` as the compound, how does the Potency read?
Its Potency is inconclusive: 44.7 µM [inhibitor, partial curve, poor fit].
